Laboratory results: PMC10415494, “Ga(III) pyridinecarboxylate complexes: potential analogues of the second generation of therapeutic Ga(III) complexes?” (Journal of Biological Inorganic Chemistry, 2023)
In brackets after ≈: the same amount, converted by molar mass.

Test system: Escherichia coli (E. coli) CCM 3988
Assay: Antimicrobial activity, macrodilution method (growth by A590)
Assay type: cell-based
Conditions: CCM3988, positive control, read-out: MIC100 for E. coli
Protocol: The antimicrobial activities of gallium(III) complexes GaPic, GaDpic, GaChel, GaCldpic, free ligands (HPic, H2Dpic, H2Chel, H2Cldpic) and positive controls (cefoxitin (C), ampicillin (A) and piperacillin (P)) were evaluated by macrodilution method using G^+ bacteria (Firmicutes) Staphylococcus aureus (S. aureus) CCM 3953 (Czech Collection of Microorganisms), G^− bacteria (γ-proteobacteria) Escherichia coli (E. coli) CCM 3988, Pseudomonas aeruginosa (P. aeruginosa) CCM 1959 (Czech Collection of Microorganisms) and the yeast Candida parapsilosis (C. parapsilosis) ATCC 22019 (American type culture collection). Cultures of bacteria (in Mueller–Hinton broth, MHB) and yeasts (in Sabouraud’s growth medium, SB) were incubated under shaking (250 rpm) at 37 °C. The growth of bacteria and yeasts was evaluated by measuring the absorbance of the growing cultures (A590) until the cultures reached the stationary growth phase. The effects of gallium(III) complexes on the growth of filamentous fungi Rhizopus oryzae (R. oryzae) CCM F-8284, Alternaria alternata (A. alternata) CCM F-128 and Microsporum gypseum (M. gypseum) CCM F-8342 (Czech Collection of Microorganisms) were observed by macrodilution method on solidified potato-dextrose growth medium (PDA). During culturing, the diameters of growing fungal colonies were measured at regular intervals. […] The IC50 values were evaluated from toxicity curves. […]

MIC: 2.86 µM (≈ 0.999 µg/mL)
SMILES: CC1(C)S[C@@H]2[C@H](NC(=O)[C@H](N)c3ccccc3)C(=O)N2[C@H]1C(=O)O [ampicillin]
